Measurements: the supplement of paper PMC8256030
Where “and” joins values, the source holds several entries; their conditions need not be identical. Identical values can stand only once. This is one part of the list. Repeats in this data set agree poorly, so a single value says little.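 HEK293T cells were given each compound shortly before transfection with a reporter in which red mCherry is followed by the SARS-CoV-2 frameshift element and then GFP in the −1 frame, so GFP appears only after frameshifting.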

What follows are compounds tested on HEK293T (assay: percent viability (nuclei count) relative to control; higher = more viable cells). Details: 10 µM; 24 h.

SMILES	percent viability
OCCOc1ccc(/C(=C(/CCCl)c2ccccc2)c2ccccc2)cc1 [ospemifene]	149%
CCO[C@@H](Cc1ccc(OCCc2ccc(OS(C)(=O)=O)cc2)cc1)C(=O)O [tesaglitazar]	183%
CN1CCCCC1CCN1c2ccccc2Sc2ccc([S+](C)[O-])cc21 (centres undefined) [mesoridazine]	211%
CNC(=O)c1c(I)c(NC(C)=O)c(I)c(C(=O)O)c1I [iotalamic acid]	211%
Cc1cc(C(=O)NCCc2ccc(S(=O)(=O)NC(=O)NN3CCCCCC3)cc2)no1 [glisoxepide]	399%
O=C([O-])[C@H](O)[C@@H](O)[C@H](O)[C@H](O)CO.[Na+]	106%
CCC[C@@H]1C[C@@H](C(=O)N[C@@H]([C@H]2O[C@H](SC)[C@H](O)[C@@H](O)[C@H]2O)[C@@H](C)O)N(C)C1	146%
N[C@@H](CCC(=O)O)C(=O)O [glutamic acid]	169%
COc1ccc2c(c1)N(CCCN(C)C)c1ccccc1S2 [methopromazine]	277%
CC(=O)Oc1ccccc1C(=O)O	153%
Cc1c(Cl)cc(C(C)C)c(O)c1Cc1c(C)c(Cl)cc(C(C)C)c1O [biclotymol]	46.5%
COc1cc(C(=O)NS(=O)(=O)c2ccccc2C)ccc1Cc1cn(C)c2ccc(NC(=O)OC3CCCC3)cc12 [Zafirlukast]	152%
CCN(CC)CCCC(C)Nc1ccnc2cc(Cl)ccc12 (centres undefined)	221%
CC(=O)c1ccc2c(c1)C(=O)C1(CC1)O2 [spizofurone]	168%
O=C(O)c1cc(/N=N/c2ccc(S(=O)(=O)Nc3ccccn3)cc2)ccc1O	163%
CCCC(C(=O)OCCN(CC)CC)(c1ccccc1)c1ccccc1	361%
C[C@H]1O[C@@H](O[C@H]2[C@@H](O)C[C@H](O[C@H]3[C@@H](O)C[C@H](O[C@H]4CC[C@@]5(C)[C@H](CC[C@@H]6[C@@H]5CC[C@]5(C)[C@@H](C7=CC(=O)OC7)CC[C@]65O)C4)O[C@@H]3C)O[C@@H]2C)C[C@H](O)[C@@H]1O	2.86%

SMILES	percent viability
Nc1nc(/C(=C/CC(=O)O)C(=O)N[C@@H]2C(=O)N3C(C(=O)O)=CCS[C@H]23)cs1 [Cedax]	279%
COc1c2ccoc2cc2oc(=O)ccc12	406%
CC[C@H]1OC(=O)[C@H](C)[C@@H](O[C@H]2C[C@@](C)(OC)[C@@H](O)[C@H](C)O2)[C@H](C)[C@@H](O[C@@H]2O[C@H](C)C[C@H](N(C)C)[C@H]2O)[C@](C)(O)C[C@@H](C)[C@@H]2N[C@@H](COCCOC)O[C@H]([C@H]2C)[C@]1(C)O [dirithromycin]	347% and 174% and 190%
NS(=O)(=O)c1cc(Cl)c(Cl)c(S(N)(=O)=O)c1 [diclofenamide]	248%
CCCCCNC(=O)c1coc([C@H]2[C@@H](Cc3ccccc3CCC(=O)O)[C@@H]3CC[C@H]2O3)n1 [ifetroban]	103%
CCc1cc(C(N)=S)ccn1 [ethionamide]	110%
CC[C@H]1OC(=O)[C@H](C)[C@@H](O[C@H]2C[C@@](C)(OC)[C@@H](O)[C@H](C)O2)[C@H](C)[C@@H](O[C@@H]2O[C@H](C)C[C@H](N(C)C)[C@H]2O)[C@](C)(O)C[C@@H](C)/C(=N\OCOCCOC)[C@H](C)[C@@H](O)[C@]1(C)O [roxithromycin]	181%
C[C@@H](n1cnc2cc(Cl)ccc2c1=O)[C@](O)(Cn1cncn1)c1ccc(F)cc1F [albaconazole]	354%
C[C@]12CC[C@@H]3c4ccc(O)cc4CC[C@H]3[C@@H]1C[C@@H](O)[C@@H]2O [Estriol]	272%
CNCCCC1c2ccccc2C=Cc2ccccc21 [protriptyline]	229%
O=C(Nc1ccc(C(=O)O)c(O)c1)c1ccccc1	254%
NC(=O)CCC/N=C(\c1ccc(Cl)cc1)c1cc(F)ccc1O [progabide]	303%
Cc1cccc(CN2CCN(C(c3ccccc3)c3ccc(Cl)cc3)CC2)c1 (centres undefined) [meclozine]	117%
CCN(CC)C(=O)C1CN2CCc3cc(OC)c(OC)cc3C2CC1OC(C)=O (centres undefined) [benzquinamide]	196%
CC1(C)S[C@@H]2[C@H](NC(=O)[C@H](C(=O)O)c3ccsc3)C(=O)N2[C@H]1C(=O)O [Ticar]	255%
CC(C)[N+]1(C)[C@@H]2CC[C@H]1C[C@@H](OC(=O)C(CO)c1ccccc1)C2 (some centres undefined)	98.3%
CN(C)C(=N)NC(=N)N	38.1%
